# In the supplement of paper PMC8728848:
# The other results are listed elsewhere or left out.
# What was measured:
# Assay in all cases: glycan array binding signal (z-score within array); higher = stronger binding
# Settings in all cases: glycan notation: IUPAC condensed, linker removed
# [1] = target: Fuc(a1-2)[GalNAc(b1-3)]Gal
# In short: (§1)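 Glycan array binding is given as a within-array Z-score, which can be read as non-binding when negative. The arrays, 3228 of them, came from the Consortium for Functional Glycomics database and were retained only where the protein sequence was available. Z-scores were averaged across arrays of the same protein sequence at different concentrations or buffers and across linkers.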
# Fuc(a1-3)GlcNAc = target: Fuc(a1-3)GlcNAc
# In short: as §1
# [2] = target: Fuc(a1-3)[Gal(b1-4)]Glc6S
# In short: as §1
# [3] = target: Fuc(a1-3)[Gal(b1-4)]GlcNAc
# In short: as §1
# [4] = target: Fuc(a1-3)[Gal(b1-4)]GlcNAc(b1-2)Man
# In short: as §1
# [5] = target: Fuc(a1-3)[Gal(b1-4)]GlcNAc(b1-2)Man(a1-3)[Fuc(a1-3)[Gal(b1-4)]GlcNAc(b1-2)Man(a1-6)]Man(b1-4)GlcNAc(b1-4)GlcNAc
# In short: as §1
# [6] = target: Fuc(a1-3)[Gal(b1-4)]GlcNAc(b1-2)Man(a1-3)[Fuc(a1-3)[Gal(b1-4)]GlcNAc(b1-2)Man(a1-6)]Man(b1-4)GlcNAc(b1-4)[Fuc(a1-6)]GlcNAc
# In short: as §1
# [7] = target: Fuc(a1-3)[Gal(b1-4)]GlcNAc(b1-3)Gal(b1-3)[Fuc(a1-4)]GlcNAc
# In short: as §1
# [8] = target: Fuc(a1-3)[Gal(b1-4)]GlcNAc(b1-3)Gal(b1-4)[Fuc(a1-3)]GlcNAc
# In short: as §1
# [9] = target: Fuc(a1-3)[Gal(b1-4)]GlcNAc(b1-3)Gal(b1-4)[Fuc(a1-3)]GlcNAc(b1-3)Gal(b1-4)[Fuc(a1-3)]GlcNAc
# In short: as §1
# [10] = target: Fuc(a1-3)[Gal(b1-4)]GlcNAc(b1-3)GalNAc
# In short: as §1
# [11] = target: Fuc(a1-3)[Gal(b1-4)]GlcNAc(b1-6)GalNAc
# In short: as §1
# [12] = target: Fuc(a1-3)[Gal(b1-4)]GlcNAc(b1-6)[Gal(b1-3)GlcNAc(b1-3)]Gal(b1-4)Glc
# In short: as §1
# [13] = target: Fuc(a1-3)[Gal(b1-4)]GlcNAc6S
# In short: as §1
# [14] = target: Fuc(a1-3)[Gal3S(b1-4)]Glc
# In short: as §1
# [15] = target: Fuc(a1-3)[Gal3S(b1-4)]GlcNAc
# In short: as §1
# [16] = target: Fuc(a1-3)[Gal3S(b1-4)]GlcNAc6S
# In short: as §1
# [17] = target: Fuc(a1-3)[GalNAc(b1-4)]GlcNAc
# In short: as §1
# [18] = target: Fuc(a1-3)[GalNAc(b1-4)]GlcNAc6S
# In short: as §1
# Fuc(a1-4)GlcNAc = target: Fuc(a1-4)GlcNAc
# In short: as §1
# Fuc(b1-3)GlcNAc = target: Fuc(b1-3)GlcNAc
# In short: as §1
# Gal(a1-2)Gal = target: Gal(a1-2)Gal
# In short: as §1
# Gal(a1-3)Gal = target: Gal(a1-3)Gal
# In short: as §1
# Gal(a1-3)Gal(b1-3)GlcNAc = target: Gal(a1-3)Gal(b1-3)GlcNAc
# In short: as §1
# [19] = target: Gal(a1-3)Gal(b1-3)GlcNAc(b1-2)Man
# In short: as §1
# [20] = target: Gal(a1-3)Gal(b1-3)GlcNAc(b1-2)Man(a1-3)[Gal(a1-3)Gal(b1-3)GlcNAc(b1-2)Man(a1-6)]Man(b1-4)GlcNAc(b1-4)GlcNAc
# In short: as §1
# [21] = target: Gal(a1-3)Gal(b1-3)GlcNAc(b1-3)GalNAc
# In short: as §1
# [22] = target: Gal(a1-3)Gal(b1-3)GlcNAc(b1-6)GalNAc
# In short: as §1
# [23] = target: Gal(a1-3)Gal(b1-3)[Fuc(a1-4)]GlcNAc(b1-2)Man(a1-3)[Gal(a1-3)Gal(b1-3)[Fuc(a1-4)]GlcNAc(b1-2)Man(a1-6)]Man(b1-4)GlcNAc(b1-4)GlcNAc
# In short: as §1
# Gal(a1-3)Gal(b1-4)Glc = target: Gal(a1-3)Gal(b1-4)Glc
# In short: as §1
# Gal(a1-3)Gal(b1-4)GlcNAc = target: Gal(a1-3)Gal(b1-4)GlcNAc
# In short: as §1
# [24] = target: Gal(a1-3)Gal(b1-4)GlcNAc(b1-2)Man
# In short: as §1
# [25] = target: Gal(a1-3)Gal(b1-4)GlcNAc(b1-2)Man(a1-3)[Gal(a1-3)Gal(b1-4)GlcNAc(b1-2)Man(a1-6)]Man(b1-4)GlcNAc(b1-4)GlcNAc
# In short: as §1
# [26] = target: Gal(a1-3)Gal(b1-4)GlcNAc(b1-3)GalNAc
# In short: as §1
# [27] = target: Gal(a1-3)Gal(b1-4)GlcNAc(b1-6)GalNAc
# In short: as §1
# [28] = target: Gal(a1-3)Gal(b1-4)[Fuc(a1-3)]GlcNAc
# In short: as §1
# [29] = target: Gal(a1-3)Gal(b1-4)[Fuc(a1-3)]GlcNAc(b1-2)Man(a1-3)[Gal(a1-3)Gal(b1-4)[Fuc(a1-3)]GlcNAc(b1-2)Man(a1-6)]Man(b1-4)GlcNAc(b1-4)GlcNAc
# In short: as §1
# Gal(a1-3)GalNAc = target: Gal(a1-3)GalNAc
# In short: as §1
# [30] = target: Gal(a1-3)[Gal(a1-4)]Gal(b1-4)GlcNAc
# In short: as §1
# [31] = target: Gal(a1-4)Gal(b1-3)GlcNAc(b1-2)Man(a1-3)[Gal(a1-4)Gal(b1-3)GlcNAc(b1-2)Man(a1-6)]Man(b1-4)GlcNAc(b1-4)GlcNAc
# In short: as §1
# Gal(a1-4)Gal(b1-4)Glc = target: Gal(a1-4)Gal(b1-4)Glc
# In short: as §1
# Gal(a1-4)Gal(b1-4)GlcNAc = target: Gal(a1-4)Gal(b1-4)GlcNAc
# In short: as §1
# [32] = target: Gal(a1-4)Gal(b1-4)GlcNAc(b1-2)Man(a1-3)[Gal(a1-4)Gal(b1-4)GlcNAc(b1-2)Man(a1-6)]Man(b1-4)GlcNAc(b1-4)GlcNAc
# In short: as §1
# [33] = target: Gal(a1-4)Gal(b1-4)GlcNAc(b1-3)Gal(b1-4)Glc
# In short: as §1
# Gal(a1-4)GlcNAc = target: Gal(a1-4)GlcNAc
# In short: as §1
binder,measurement,setting,value
"EfCBM33A (Enterococcus faecalis), Q838S1 (protein) MKKSLLTIVLAFSFVLGGAALAPTVSEAHGYVASPGSRAFFGSSAGGNLNTNVGRAQWEPQSIEAPKNTFITGKLASAGVSGFEPLDEQTATRWHKTNITTGPLDITWNLTAQHRTASWDYYITKNGWNPNQPLDIKNFDKIASIDGKQEVPNKVVKQTINIPTDRKGYHVIYAVWGIGDTVNAFYQAIDVNIQ",glycan array binding signal (z-score),[1],0.576
same,glycan array binding signal (z-score),Fuc(a1-3)GlcNAc,-0.585
same,glycan array binding signal (z-score),[2],-0.134
same,glycan array binding signal (z-score),[3],-0.476
same,glycan array binding signal (z-score),[4],-0.178
same,glycan array binding signal (z-score),[5],-1.5
same,glycan array binding signal (z-score),[6],-0.453
same,glycan array binding signal (z-score),[7],0.114
same,glycan array binding signal (z-score),[8],0.008
same,glycan array binding signal (z-score),[9],-0.207
same,glycan array binding signal (z-score),[10],1.33
same,glycan array binding signal (z-score),[11],0.409
same,glycan array binding signal (z-score),[12],-0.984
same,glycan array binding signal (z-score),[13],0.882
same,glycan array binding signal (z-score),[14],0.431
same,glycan array binding signal (z-score),[15],-0.046
same,glycan array binding signal (z-score),[16],-0.44
same,glycan array binding signal (z-score),[17],0.464
same,glycan array binding signal (z-score),[18],-0.82
same,glycan array binding signal (z-score),Fuc(a1-4)GlcNAc,0.25
same,glycan array binding signal (z-score),Fuc(b1-3)GlcNAc,-1.52
same,glycan array binding signal (z-score),Gal(a1-2)Gal,-1.64
same,glycan array binding signal (z-score),Gal(a1-3)Gal,0.733
same,glycan array binding signal (z-score),Gal(a1-3)Gal(b1-3)GlcNAc,-0.812
same,glycan array binding signal (z-score),[19],1.41
same,glycan array binding signal (z-score),[20],-0.787
same,glycan array binding signal (z-score),[21],-0.232
same,glycan array binding signal (z-score),[22],0.171
same,glycan array binding signal (z-score),[23],1.05
same,glycan array binding signal (z-score),Gal(a1-3)Gal(b1-4)Glc,-0.551
same,glycan array binding signal (z-score),Gal(a1-3)Gal(b1-4)GlcNAc,-1.18
same,glycan array binding signal (z-score),[24],-0.629
same,glycan array binding signal (z-score),[25],0.252
same,glycan array binding signal (z-score),[26],0.455
same,glycan array binding signal (z-score),[27],-1.51
same,glycan array binding signal (z-score),[28],-0.905
same,glycan array binding signal (z-score),[29],-0.476
same,glycan array binding signal (z-score),Gal(a1-3)GalNAc,-0.651
same,glycan array binding signal (z-score),[30],0.98
same,glycan array binding signal (z-score),[31],1.56
same,glycan array binding signal (z-score),Gal(a1-4)Gal(b1-4)Glc,-0.647
same,glycan array binding signal (z-score),Gal(a1-4)Gal(b1-4)GlcNAc,-0.033
same,glycan array binding signal (z-score),[32],0.852
same,glycan array binding signal (z-score),[33],-0.03
same,glycan array binding signal (z-score),Gal(a1-4)GlcNAc,0.566

# Fetched one by one from above:
binder,measurement,setting,value
"EfCBM33A (Enterococcus faecalis), Q838S1 (protein) MKKSLLTIVLAFSFVLGGAALAPTVSEAHGYVASPGSRAFFGSSAGGNLNTNVGRAQWEPQSIEAPKNTFITGKLASAGVSGFEPLDEQTATRWHKTNITTGPLDITWNLTAQHRTASWDYYITKNGWNPNQPLDIKNFDKIASIDGKQEVPNKVVKQTINIPTDRKGYHVIYAVWGIGDTVNAFYQAIDVNIQ",glycan array binding signal (z-score),[18],-0.82
same,glycan array binding signal (z-score),[28],-0.905
